Article PMC9198812
Construct, isoform or probe ends are uncertain for at least one entry. For some assays here: At least one verdict rests on a figure or table, not on a statement of the authors.

Key:
[1] = molecular target: gp4-R84A (bacteriophage T7) (UniProt P03692); assay: double-filter binding; conditions: 1 mM [beta,gamma-CH2] dTTP, 10 mM MgCl2, Filter binding: 40 mM Tris-HCl pH 7.5, 50 mM potassium glutamate, 10 mM MgCl2, 5 mM DTT, 30 min, 25 C, recombinant protein, residues 1-566, protein details: His (implied: pET28, TALON), label: 5'-32P, single-stranded DNA
[2] = molecular target: gp4-R84A (bacteriophage T7) (UniProt P03692); assay: mass photometry; conditions: 1 mM [beta,gamma-CH2] dTTP, 10 mM MgCl2, 150 mM KCl, profile resembles WT (text prints R86A); mass photometry: 40 mM Tris-HCl pH 7.5, 150 mM KCl, 10 mM MgCl2, 25 C, 8.7 nM gp4 hexamer, 10 nM ssDNA; recombinant protein; residues 1-566; protein details: His (implied: pET28, TALON); single-stranded DNA

Sequence | Kd [1] | binding result [2]
ATGACCATGATTTCGACGTTTTTTTTTTTGGGGATCCTCTAACCTGCGCA [50-nt ssDNA, 5'-32P] | 128 nM | 
ATGACCATGATTTCGACGTTTTTTTTTTTGGGGATCCTCTAACCTGCGCA [50-nt ssDNA, mass photometry] |  | binds
